Source: PubChem BioAssay AID1224904 (Broad Institute, 2016).

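Control-channel Italica luciferase signal in doxycycline-induced 293T-iDUX4 cells, given as percent activity after a 24-hour treatment. The test concentration is not given here. Percent change in the Italica control signal; more negative values mean stronger inhibition, which points to nonspecific, tet-on or cytotoxic effects.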

Values are in %. Common to all entries: measured here: Italica tet-on control reporter. Part of the compounds only, not a random draw; the main read-out is not listed here.

| # | structure | activity change (%) |
|---|---|---|
| 1 | `N#Cc1cccc(-c2ccc(C3[C@@H]4CN(S(=O)(=O)c5ccccc5)C[C@H]3N4)cc2)c1` (stereo partly shown) | -24.32 |
| 2 | `CCS(=O)(=O)N1CC2(CN(Cc3ccccc3)[C@H](CO)c3c2c2ccc(OC)cc2n3C)C1` | -7.69 |
| 3 | `COc1ccc2c3c(n(C)c2c1)[C@@H](CO)N(Cc1nccs1)CC31CCN(CC2CCCC2)CC1` | -11.54 |
| 4 | `N#Cc1ccc(-c2ccc(C3[C@@H]4CN(C(=O)c5cccnc5)C[C@H]3N4)cc2)cc1` (stereo partly shown) | 4.425 |
| 5 | `COc1cccc(S(=O)(=O)N2CCCCN3[C@H](CO)[C@H](c4ccc(-c5cccnc5)cc4)[C@@H]3C2)c1` | -68.97 |
| 6 | `N#C[C@H]1[C@H](c2ccccc2-c2ccc(F)cc2)[C@H](CO)N1C(=O)NC1CCCCC1` | -28.74 |
| 7 | `Cc1ccccc1S(=O)(=O)N1C[C@@H]2N[C@H](C1)C2c1ccc(-c2cccc(C#N)c2)cc1` (stereo partly shown) | -81.59 |
| 8 | `COc1cccc(-c2ccc(C3[C@@H]4CN(C(=O)c5cnccn5)C[C@H]3N4)cc2)c1` (stereo partly shown) | 2.458 |
| 9 | `C[C@H]1CN([C@@H](C)CO)C(=O)c2c(c3ccccc3n2C)-c2ccccc2CO[C@H]1CN(C)S(=O)(=O)c1ccccc1C#N` | -41.32 |
| 10 | `COc1ccc2c3c(n(C)c2c1)[C@H](CO)N(C)CC31CCN(C(=O)c2ccccc2F)CC1` | -1.352 |
| 11 | `COc1ccc2c3c([nH]c2c1)[C@H](CO)N(C(=O)NC(C)C)CC31CN(Cc2ccccc2)C1` | -15.67 |
| 12 | `COc1ccc(S(=O)(=O)N(C)C[C@H]2OCc3ccccc3-c3c(n(C)c4ccccc34)C(=O)N([C@H](C)CO)C[C@@H]2C)cc1` | -53.1 |
| 13 | `C[C@H]1CN([C@@H](C)CO)C(=O)c2c(c3ccccc3n2C)-c2ccccc2CO[C@H]1CN(C)C(=O)Nc1ccc(-c2ccccc2)cc1` | -25.08 |
| 14 | `O=C(C[C@H]1CC[C@@H]2[C@H](COC[C@H](O)CN2Cc2ccc(Oc3ccccc3)cc2)O1)Nc1nccs1` | -13.86 |
| 15 | `O=C(Nc1ccc2c(c1)[C@H]1C[C@@H](CC(=O)N3CCc4ccccc4C3)O[C@H](CO)[C@H]1O2)c1ccc2c(c1)OCO2` | -35.14 |
| 16 | `N#Cc1cccc(-c2ccc(C3[C@@H]4CN(Cc5ccccc5F)C[C@H]3N4)cc2)c1` (stereo partly shown) | -1.774 |
| 17 | `N#Cc1ccc(-c2ccc([C@@H]3[C@@H](CO)N4C(=O)CN(C(=O)C5CCCCC5)C[C@@H]34)cc2)cc1` | -23.89 |
| 18 | `O=C(Cc1ccccc1)N1CC[C@@H]2[C@H]1c1cc(-c3ccccc3)ccc1N[C@@H]2CO` | -33.38 |
| 19 | `N#Cc1cccc(-c2ccc(C3[C@@H]4CN(C(=O)C5CCCCC5)C[C@H]3N4)cc2)c1` (stereo partly shown) | 1.656 |
| 20 | `N#Cc1cccc(-c2ccc3c(c2)[C@H]2[C@H](CCN2C(=O)c2ccncc2)[C@H](CO)N3)c1` | -3.787 |
| 21 | `O=C(C1CC1)N1CC[C@@H]2[C@H](CO)Nc3ccc(C#Cc4ccccc4F)cc3[C@@H]21` | 2.285 |
| 22 | `Cc1cccc(S(=O)(=O)N2CCCCN3[C@H](CO)[C@H](c4ccc(-c5ccncc5)cc4)[C@@H]3C2)c1` | -50.38 |
| 23 | `CCCNC(=O)C[C@@H]1CC[C@@H]2[C@H](COC[C@@H](O)CN2Cc2ccc(Cl)c(Cl)c2)O1` | -13.39 |
| 24 | `COc1cccc(CN2CC3(C2)[C@H](c2ccccc2)[C@H](CO)N3C(=O)Cc2ccccc2)c1` | -7.266 |
| 25 | `O=C(c1cccnc1)N1CC(=O)N2[C@H](CO)[C@@H](c3ccc(C#CCC4CCCC4)cc3)[C@H]2C1` | -8.404 |
| 26 | `O=C(C[C@@H]1C[C@@H]2c3cc(NS(=O)(=O)c4ccc(F)cc4)ccc3O[C@@H]2[C@@H](CO)O1)NCc1ccc(Cl)cc1` | -40.23 |
| 27 | `COc1cccc(C#Cc2ccc([C@H]3[C@H](CO)N4C(=O)CN(S(=O)(=O)c5ccccc5C)C[C@@H]34)cc2)c1` | -4.224 |
| 28 | `CCCNC(=O)N1CC2(CN(S(=O)(=O)c3ccc(OC)cc3)C2)c2c(n(C)c3cc(OC)ccc23)[C@H]1CO` | -25.95 |
| 29 | `CN(C)C(=O)c1cccc(-c2ccc([C@H]3[C@@H](C#N)N(C(=O)C4CC4)[C@@H]3CO)cc2)c1` | -20.14 |
| 30 | `C[C@H](NC(=O)C[C@@H]1CC[C@H]2[C@@H](COC[C@@H](O)CN2C(=O)Nc2cccc(Cl)c2)O1)c1ccccc1` | -1.946 |
| 31 | `O=C(Nc1ccc(C(F)(F)F)cc1)N1C[C@@H]2N[C@H](C1)C2c1ccc(/C=C/c2ccccc2)cc1` (stereo partly shown) | -75.21 |
| 32 | `C[C@H](CO)N1C[C@H](C)[C@@H](CN(C)S(=O)(=O)c2cccs2)OCc2ccccc2-c2c(n(C)c3ccccc23)C1=O` | -9.172 |
| 33 | `COc1ccccc1S(=O)(=O)N1CC[C@@H]2[C@H]1c1cc(C#CC3CCCCC3)ccc1N[C@@H]2CO` | -1.1 |
| 34 | `CCC(=O)N1CC2(C1)[C@H](c1ccccc1)[C@H](CO)N2Cc1cccc(Cl)c1` | -0.9034 |
| 35 | `O=C(NC1Cc2ccccc2C1)[C@@H]1[C@@H](CO)[C@@H]2Cn3c(ccc(C4=CCCCC4)c3=O)[C@H]1N2CC1CC1` | -21.58 |
| 36 | `COC(=O)[C@H]1[C@H](CO)[C@H]2Cn3c(ccc(C4=CCCCC4)c3=O)[C@@H]1N2CC1CCCC1` | 2.656 |
| 37 | `Cc1cccc(S(=O)(=O)N2CCCCN3[C@H](C2)[C@H](c2ccc(-c4ccncc4)cc2)[C@@H]3CO)c1` | -25.69 |

Repeated from the top, 3 entries:

structure,activity change (%)
N#Cc1cccc(-c2ccc(C3[C@@H]4CN(S(=O)(=O)c5ccccc5)C[C@H]3N4)cc2)c1 (stereo partly shown),-24.32
CCS(=O)(=O)N1CC2(CN(Cc3ccccc3)[C@H](CO)c3c2c2ccc(OC)cc2n3C)C1,-7.69
COc1ccc2c3c(n(C)c2c1)[C@@H](CO)N(Cc1nccs1)CC31CCN(CC2CCCC2)CC1,-11.54